Measurements: paper PMC4267665
These are yes or no findings as the source states them, for the method shown. In cells and extracts the contact can be indirect. Some results given as binding are weak or reduced against the parent protein; the word gives no strength.

Biological target: SETDB1 (mouse) (mouse (endogenous in NIH3T3 and embryonic fibroblasts)) (UniProt O88974)
Assay: co-IP; 10 ug anti-SETDB1 antibody with 100 ug whole cell extract overnight at 4°C, protein A or A/G beads, western blot; lysis buffer 0.5% NP-40, 50 mM Tris-Cl, 10% glycerol, 0.1 M EDTA, 15 mM NaCl; NIH3T3, mEF and T47D cells; T47D lysates with or without NEM, before or after agRNA transfection

- binding: binds
Substance: AGO2 (mouse) (from UniProt Q8CJG0 1-860)
